Laboratory results taken from patent US20240350586A1.
Results are given in words; binding and its absence hold for the method and conditions named. Binding seen in cells or lysates may run through a third protein. Some entries that bind do so weakly or less than the wild type.

Sequences of proteins named here, by UniProt entry; tags and fusion partners are left off.
UniProt O95166: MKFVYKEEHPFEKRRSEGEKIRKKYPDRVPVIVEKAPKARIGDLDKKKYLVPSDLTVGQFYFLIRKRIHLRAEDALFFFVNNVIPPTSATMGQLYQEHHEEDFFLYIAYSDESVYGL
UniProt Q9BXW4: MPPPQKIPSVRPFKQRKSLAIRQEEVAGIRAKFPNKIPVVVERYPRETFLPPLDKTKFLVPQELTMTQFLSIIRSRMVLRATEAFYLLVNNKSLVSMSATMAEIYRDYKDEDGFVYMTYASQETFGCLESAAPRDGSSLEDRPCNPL

Key:
[1] = target: His-T7-GABARAP (purified protein) (UniProt O95166); assay: synthetic peptide pull-down of T7-GABARAP protein
[2] = target: His-T7-LC3C (purified protein) (UniProt Q9BXW4); assay: synthetic peptide pull-down, immunoblot

B1: CCT2 domain3 peptide 7 (peptide)
peptide: ILGITESFQVKRQVLLSAAEAAEVILRVDN
With B1 the binding [1] was “binds” and the binding [2] was “binds”.
